The results in this text go back to paper PMC7819943, “Rice protein-binding microarrays: a tool to detect cis-acting elements near promoter regions in rice”.

Protein sequences, listed by entry. Tags and fused reporters are not part of them.
UniProt Q0JBA9, entry or part of it: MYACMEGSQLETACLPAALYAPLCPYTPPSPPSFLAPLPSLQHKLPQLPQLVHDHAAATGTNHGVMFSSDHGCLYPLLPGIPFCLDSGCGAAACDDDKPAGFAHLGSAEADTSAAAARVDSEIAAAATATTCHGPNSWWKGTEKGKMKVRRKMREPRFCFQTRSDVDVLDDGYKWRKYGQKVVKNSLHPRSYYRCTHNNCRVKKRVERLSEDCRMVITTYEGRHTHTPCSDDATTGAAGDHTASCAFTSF

This is one part of the list.

For this assay, the target named is OsWRKY34 (Oryza sativa, UniProt Q0JBA9 1-250). Put plainly: protein-binding microarray (RPBM); PBS, 2% BSA, 51.3 ng/ul salmon testes DNA, 50 uM zinc acetate, 200 nM TF, 25 C, 1 h; high values mean tight binding. Particulars: protein: recombinant; tags: N-terminal polyhistidine and DsRed monomer fusion (pET32a); label: CyDye5-dUTP incorporated in the synthesized complementary strand; 3' TTTTT single-stranded linker to array surface; dsDNA, one strand shown. The essentials: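 In PBS with 2% BSA, salmon testes DNA and 50 µM zinc acetate, 200 nM protein was incubated on a custom Agilent array at 25 °C for 1 h and then washed off. The array had been made double-stranded by primer extension with Cy5-dUTP and blocked with 2% BSA. The proteins were transcription factors fused N-terminally to polyhistidine and DsRed, expressed in E. coli BL21-CodonPlus and purified on Ni–NTA. The binding signal is per-feature fluorescence intensity (arbitrary units) from an Axon 4000B scanner.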
“CCATTACTACTGCGTGCCCTTGGATGGCTATTTTTCTCGACGGAGTCACCTAGTGCAG”: the binding signal is 8760 fluorescence intensity (a.u.).
Turning to “CAATGCTGGACTTATCGGGTAACGCGCTTACCGGCACTCTCGGAGTCACCTAGTGCAG”, the binding signal is 8640 fluorescence intensity (a.u.).
Regarding “TAAAACGAATGGTCAAACGTTGGTCGAAAAGTCAACGGCGCGGAGTCACCTAGTGCAG”, the binding signal was 14400 fluorescence intensity (a.u.).
The figure for “ACCATTCTTCACTTGACTCGTCTTCATCCATCCGACGCCGCGGAGTCACCTAGTGCAG” is 9890 fluorescence intensity (a.u.); for “CCACTTCTCTCTCTACAATCCAAACTCACTCTCTCCCTCTCGGAGTCACCTAGTGCAG” it is 11000 fluorescence intensity (a.u.); for “AATGGTCAAACATGTGAGAAAAAGTCAACGATGTCATCTACGGAGTCACCTAGTGCAG” it is 14700 fluorescence intensity (a.u.).
The figure for “CGTTGACTTTTTCTTACATGTTTGACCATTCGTCTTATTTCGGAGTCACCTAGTGCAG” is 35300 fluorescence intensity (a.u.); for “TAGATGGCAGTTTCTTTCCTTGGGACCTACGCTAATGCCTCGGAGTCACCTAGTGCAG” it is 9960 fluorescence intensity (a.u.); for “CTTTTTCTCATTATTTTCCAATGCATGCATCGATCAACAACGGAGTCACCTAGTGCAG” it is 8440 fluorescence intensity (a.u.).
“TAGATTACACATGCCCAACACGTCCCATCACTAATCTGATCGGAGTCACCTAGTGCAG”: the binding signal is 9420 fluorescence intensity (a.u.).
The figure for “TGTTGACTTTTTAAAACATGTTTGACCGTTCATATTATTCCGGAGTCACCTAGTGCAG” is 15700 fluorescence intensity (a.u.).
Take “TATTGATCTCCAATTCTTTTCTCACTTCTACTTGTTTTAACGGAGTCACCTAGTGCAG”: the binding signal is 8660 fluorescence intensity (a.u.).
Take “GTGTATTCTACTTAGTAATTTACTTGGCTTGAATTTTTTTCGGAGTCACCTAGTGCAG”: the binding signal is 28900 fluorescence intensity (a.u.).
For “TTCTCTCTCTCTCTTTTTTTTTCTTCCTTTCTTTTTGGATCGGAGTCACCTAGTGCAG”, the binding signal is 8820 fluorescence intensity (a.u.).
Turning to “GTATTATTACATAGGTACCATTTGGTCTCCGGTCCTCATCCGGAGTCACCTAGTGCAG”, the binding signal was 8410 fluorescence intensity (a.u.).
In the case of “CCTCTCTCCGGCCGCCTATAAATTCGGCGCCAATGTGCACCGGAGTCACCTAGTGCAG” it was 11300 fluorescence intensity (a.u.); in that of “TACTTCTTAGCTACTTCTATTGCCCATTGTCATTCTCTTTCGGAGTCACCTAGTGCAG”, 13000 fluorescence intensity (a.u.); in that of “AGCCGCACATCCCCGCCTCTTCCCGCCGCCGTCCGCCGCGCGGAGTCACCTAGTGCAG”, 9290 fluorescence intensity (a.u.).
Regarding “GCTGCTTCTTCGCTTCAATTCTGTGTTGGTAGCAGGCGACCGGAGTCACCTAGTGCAG”, the binding signal was 8180 fluorescence intensity (a.u.).
As for “CTGCCGGCTGCTCAATTTATTCCCTTGCTGTTTCATTTCGCGGAGTCACCTAGTGCAG”, the binding signal was 45500 fluorescence intensity (a.u.).
Consider “CGATGGGGTATTGTGTGCGTATGGGATGCGGAGTCGAATTCGGAGTCACCTAGTGCAG”, for which the binding signal is 10000 fluorescence intensity (a.u.).
In the case of “GGGGTTCGCGTTCGCGTCGCTCTCGTCTCGTCTCGTCATGCGGAGTCACCTAGTGCAG”, the binding signal is 9010 fluorescence intensity (a.u.).
The figure for “TCCCATCCCATCGATCGATCGATCTCATGCGGCAGCTTTACGGAGTCACCTAGTGCAG” is 8510 fluorescence intensity (a.u.); for “GAGAGAAGCTCTCTCTCACTCACTCGCTCGCCACACACCACGGAGTCACCTAGTGCAG” it is 8440 fluorescence intensity (a.u.).
For the sequence “TTCTTTGTTTTCACGGTATCATTTCACAAGGGCTTGTCCTCGGAGTCACCTAGTGCAG”, the binding signal was 8470 fluorescence intensity (a.u.).
With “ATCCTCTGTTTTTCCTGCTACTATGTTTTCTCGATCTTTCCGGAGTCACCTAGTGCAG”, the binding signal was 12900 fluorescence intensity (a.u.).
Take “ATTAATAGCATTTTGGTTATTCTCACGCTTCACTATTTTTCGGAGTCACCTAGTGCAG”: the binding signal was 11300 fluorescence intensity (a.u.).
The figure for “GGCTGAGAAACCACCACTGTCTCCATCGTCGGTCAGCCCGCGGAGTCACCTAGTGCAG” is 11000 fluorescence intensity (a.u.); for “TAATTATTTATAGCTCTATGGTCCACATTGTCCTTTGTGTCGGAGTCACCTAGTGCAG” it is 8340 fluorescence intensity (a.u.).
“TATGGCTTGAATTGCTTCTTATTTGGTGCTGGAATGGTTACGGAGTCACCTAGTGCAG”: the binding signal was 8810 fluorescence intensity (a.u.).
The figure for “CTCCAGCTTGTCCAGCGCCGCCTTCCGCTGCTCGTCCTCCCGGAGTCACCTAGTGCAG” is 8790 fluorescence intensity (a.u.); for “GCCTGGCTCATCGGTTACCCTTTCTCACCGACTGTACTACCGGAGTCACCTAGTGCAG” it is 8790 fluorescence intensity (a.u.).
For the sequence “AAAGTTAAAACACTCTTATTCTCTTGTTGTTGTGTTCCTTCGGAGTCACCTAGTGCAG”, the binding signal was 8790 fluorescence intensity (a.u.).
Turning to “GTGTTGTGGCGGCGGATTGGATCAGTGGCCGCTGTCGCGCCGGAGTCACCTAGTGCAG”, the binding signal was 8360 fluorescence intensity (a.u.).
Regarding “TCTTCATATCTTTTGGCTGAAACCAAGCCAACTACTATACCGGAGTCACCTAGTGCAG”, the binding signal was 8280 fluorescence intensity (a.u.).
In the case of “TTATCTAGATTCGTATTACTAGGATGTGTCTCGTTCAACCCGGAGTCACCTAGTGCAG”, the binding signal is 8780 fluorescence intensity (a.u.).
On to “GGCGTTGGTCACCTCCCGTGAGTCGTCCTCTATTCCTCTTCGGAGTCACCTAGTGCAG”, for which the binding signal is 11100 fluorescence intensity (a.u.).
As for “ACACTATTGAGCGCTTACCATGGGCATTTCGCGTATGATTCGGAGTCACCTAGTGCAG”, the binding signal is 8980 fluorescence intensity (a.u.).
In the case of “AATACCAACTTTGCAGTTTATTTCTGCAGTATTTTACTATCGGAGTCACCTAGTGCAG” it was 8770 fluorescence intensity (a.u.); in that of “CATCGTCATCTTTGTTGTCATCGGGTGTGGCAGTGAACATCGGAGTCACCTAGTGCAG”, 9720 fluorescence intensity (a.u.); in that of “AGTTTCCAACCCAATTGGCCACTTACCATGCTATTATATACGGAGTCACCTAGTGCAG”, 8560 fluorescence intensity (a.u.).
Turning to “CCCATTTAACTTCACAACACATCTCATTGTTTGTTACCAACGGAGTCACCTAGTGCAG”, the binding signal is 8270 fluorescence intensity (a.u.).
